Measured values reported in publication PMC4746772.
These are yes or no findings as the source states them, for the method shown. Some results given as binding are weak or reduced against the parent protein; the word gives no strength.

The chains behind the UniProt entries cited, without tags or fusion partners. Where a name states a change or a piece, a line headed by the entry shows the natural chain unless it says otherwise. Residues count along the entry.
UniProt P14190: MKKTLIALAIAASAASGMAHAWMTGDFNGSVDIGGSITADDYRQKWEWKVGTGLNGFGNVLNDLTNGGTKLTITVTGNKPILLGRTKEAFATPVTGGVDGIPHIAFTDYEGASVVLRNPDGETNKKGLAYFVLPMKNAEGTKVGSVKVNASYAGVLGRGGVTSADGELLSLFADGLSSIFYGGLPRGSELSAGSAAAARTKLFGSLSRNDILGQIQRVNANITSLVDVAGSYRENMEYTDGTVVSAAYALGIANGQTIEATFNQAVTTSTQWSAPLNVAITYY
GST-FaeG F4ac (pGEX-6p-1-FaeG F4ac) (Escherichia coli (F4ac ETEC)): residues 22-283 of P14190
UniProt P02970: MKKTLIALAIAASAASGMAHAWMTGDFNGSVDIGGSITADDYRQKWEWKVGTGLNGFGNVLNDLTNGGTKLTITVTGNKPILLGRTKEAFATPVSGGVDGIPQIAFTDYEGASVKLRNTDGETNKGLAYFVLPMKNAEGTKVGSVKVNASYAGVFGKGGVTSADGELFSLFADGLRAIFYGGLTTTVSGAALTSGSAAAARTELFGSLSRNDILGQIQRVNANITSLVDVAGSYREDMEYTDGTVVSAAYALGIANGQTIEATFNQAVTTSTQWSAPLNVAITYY
UniProt P14191: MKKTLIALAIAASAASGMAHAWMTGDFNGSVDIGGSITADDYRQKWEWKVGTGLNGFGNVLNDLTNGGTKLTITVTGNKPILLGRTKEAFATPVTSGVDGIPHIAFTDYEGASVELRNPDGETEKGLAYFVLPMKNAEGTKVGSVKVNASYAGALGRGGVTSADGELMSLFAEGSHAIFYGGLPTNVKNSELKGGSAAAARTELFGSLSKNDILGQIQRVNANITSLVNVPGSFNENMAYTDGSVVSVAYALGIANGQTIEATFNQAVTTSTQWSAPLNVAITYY

T1: porcine aminopeptidase N in pGBKT7 (pGBKT7-APN) (pig (porcine)) (UniProt P15145)
T1 sequence: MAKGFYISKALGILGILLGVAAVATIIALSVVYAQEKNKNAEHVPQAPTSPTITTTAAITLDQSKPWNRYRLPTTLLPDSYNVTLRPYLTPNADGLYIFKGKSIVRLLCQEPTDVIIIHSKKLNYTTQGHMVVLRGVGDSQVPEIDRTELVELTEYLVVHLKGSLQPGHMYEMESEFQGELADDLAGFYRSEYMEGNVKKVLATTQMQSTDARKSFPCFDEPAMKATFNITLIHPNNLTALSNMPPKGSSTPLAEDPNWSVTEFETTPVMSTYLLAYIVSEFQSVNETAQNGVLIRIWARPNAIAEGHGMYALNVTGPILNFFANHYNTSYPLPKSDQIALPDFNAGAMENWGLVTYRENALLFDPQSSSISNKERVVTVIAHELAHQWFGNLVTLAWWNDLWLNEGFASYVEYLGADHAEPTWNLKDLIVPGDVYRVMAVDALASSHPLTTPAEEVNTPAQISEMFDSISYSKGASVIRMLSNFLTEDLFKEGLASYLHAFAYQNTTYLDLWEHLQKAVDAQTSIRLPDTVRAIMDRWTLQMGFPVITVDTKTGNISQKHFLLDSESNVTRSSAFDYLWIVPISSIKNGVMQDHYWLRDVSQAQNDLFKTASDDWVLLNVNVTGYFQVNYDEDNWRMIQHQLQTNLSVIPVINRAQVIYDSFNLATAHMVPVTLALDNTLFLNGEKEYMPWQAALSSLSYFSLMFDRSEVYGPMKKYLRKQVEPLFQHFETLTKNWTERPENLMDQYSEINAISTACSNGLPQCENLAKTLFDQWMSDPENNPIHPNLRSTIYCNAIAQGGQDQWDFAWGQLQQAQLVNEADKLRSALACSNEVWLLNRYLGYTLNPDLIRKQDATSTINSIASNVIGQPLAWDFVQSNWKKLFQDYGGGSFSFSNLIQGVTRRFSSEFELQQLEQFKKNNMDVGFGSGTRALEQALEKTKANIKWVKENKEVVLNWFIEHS

B1: porcine aminopeptidase N, recombinant protein (receptor, UniProt P15145 1-963)
chain: T1 sequence

Assays:
[1] = biological target: T1, porcine aminopeptidase N in pGBKT7 (pGBKT7-APN) (pig (porcine)); assay: two-hybrid; pGADT7-FaeG and pGBKT7-APN in S. cerevisiae AH109 (Clontech); selection on SD/-Ade/-His/-Leu/-Trp, β-galactosidase activity
[2] = biological target: GST-FaeG F4ac (pGEX-6p-1-FaeG F4ac) (Escherichia coli (F4ac ETEC)) (UniProt P14190); assay: pull-down; Pierce GST Protein Interaction Pull-Down Kit, GST-FaeG fusion as bait; SDS-PAGE and Western blot with anti-F4 monoclonal and anti-APN polyclonal antibodies; in some cases the PVDF membranes were treated with 0-20 mM NaIO4 before blotting; both purified

| Molecule | binding [1] | binding [2] |
| --- | --- | --- |
| F4ac FaeG in pGADT7 (pGADT7-FaeG) (from UniProt P14190 1-283) | binds | – |
| F4ab FaeG in pGADT7 (pGADT7-FaeG) (from UniProt P02970 1-285) | binds | – |
| F4ad FaeG in pGADT7 (pGADT7-FaeG) (from UniProt P14191 1-285) | binds | – |
| B1 | – | binds |
